In PubChem BioAssay AID1347426 (Functional Genomics Laboratory (NCATS/FGL), 2020) one finds median seed-adjusted z-score data, which are given here for 108 sequences.

Hit rate of the full screen: of about 31,000 sequences, about 1,400 (4.5%) were called active.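 How the source made its calls: active means median seed-adjusted z-score above 1 or below -1; inactive means the rest.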 The list shows a part of the results.

This test can be described thus: Novel Modifiers of Survival Motor Neuron (SMN) Protein: Gene Identification via Genome-wide siRNA Screen.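 Further: luminescence tracks full-length SMN protein made from the SMN2 reporter.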 The note with it: HEK293T SMN2-luciferase reporter, siRNA knockdown, 72 h; actives lie on both sides. An outline of the steps:
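HEK293T cells stably expressing an SMN2 splicing/cDNA-luciferase reporter were reverse-transfected with a druggable-genome siRNA library and read by luminescence at 72 hours; hits defined by MAD score above 1.0 or below -1.0.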
Take CGGCUUUUGCUAUGACCAATT against SERPINC1: the median seed-adjusted z-score was inactive: -0.0822.
In the case of GAGGAAUACUAGUAAACAATT against EIF3H, the median seed-adjusted z-score is inactive: 0.449.
Take GAUCGUUUCCUAUACAGUATT against ESPL1: the median seed-adjusted z-score is inactive: 0.871.
Next, CAUUUGUCGUGUAUGAAAATT against GPR63: inactive: -0.0154.
CGACUGAACAAACCCUAUATT against ERCC3: the median seed-adjusted z-score is inactive: 0.155.
Next, ACAGGCCUGUGAAACCCUATT against PEX5: inactive: -0.0414; GGAUGACUAAACAUAAGAATT against CCBL2: inactive: 0.184; CCAUCUACAAGUGUCCUUATT against ZNF276: inactive: 0.318.
Next, CGACCCUCAGAAUGAUAAATT against ARPC3: inactive: -0.237.
In the case of GAGCUGACCCUGAACAUUATT against ITGAE, the median seed-adjusted z-score was inactive: -0.0378.
The figure for GAAUGGAAGUAAUGAUUCUTT against TMPO is inactive: -0.0406.
Take CUGCAGAAGCGAUGCGAUATT against NAP1L5: the median seed-adjusted z-score is inactive: 0.115.
As for GAACAAGCCUACUGCUAUATT against TKTL2, the median seed-adjusted z-score is inactive: -0.0379.
Consider GACGGCCUCUAUUACCUCUTT against LTB, for which the median seed-adjusted z-score is inactive: 0.646.
The figure for CGGUCACUCUUGCCCAGAUTT against RHBDL1 is inactive: -0.365; for GGCGUGAGGUUUUUGACUATT against NFE2L1 it is inactive: 0.689.
Regarding CAGUAUAUCGAUUCUCGUUTT against NCOA3, the median seed-adjusted z-score was inactive: -0.594.
Next, GCAUAUCUGCUGAUGAUGATT against RDBP: inactive: 0.975; GGAGGUAUCUAACAAGAUUTT against LPO: inactive: 0.201; GGAGUUAUGCAGCUAAUUATT against SLC7A11: inactive: -0.182.
Next, GGUAUGGAUUUAACAGUCATT against DHODH: inactive: -0.422; GCACCUAUGAGUUCGGCAATT against SLC25A39: inactive: -0.111; GCACUGUAGCAUACCUGUATT against GINS1: inactive: -0.224.
For the sequence GCAUUGCUGCAGACAGAUUTT against PCDH20, the median seed-adjusted z-score is inactive: 0.0594.
In the case of CCUGGUCCGUGAUAGCAAATT against AQP7, the median seed-adjusted z-score was inactive: 0.0827.
Next, CUCGGUCAGUGGACUCUUATT against ATF6: inactive: 0.26.
With CAGCCUUACUCAAUUUGUATT against EFS, the median seed-adjusted z-score was inactive: -0.299.
The figure for GGCUGCUCAUCGAAAAGUATT against PLCB3 is inactive: 0; for GAUUGGGCUCUAUACAUUUTT against NPY5R it is inactive: 0.213.
Next, GAAUGUUCUCAACCGGAAATT against DRD1: inactive: -0.508.
For GAUUAUAAGUAUCUACGUUTT against GTPBP4, the median seed-adjusted z-score was active: 1.01.
CCGCUGCACUACAAUCUGATT against TRHDE: the median seed-adjusted z-score is inactive: 0.429.
CCCUUUUACUAUUCAGCGATT against PPP4R2: the median seed-adjusted z-score was inactive: 0.211.
On to GGACCAUAGGAUUACAACUTT against HOXA1, for which the median seed-adjusted z-score is inactive: 0.
Next, CACCAGCUAUAUGAAACUATT against DCTN2: inactive: 0.339; GGAUCUUAGGGAAGCAGCATT against ATG4A: inactive: -0.288.
In the case of GGCUUAAAGACAUUGAACATT against KLHL1, the median seed-adjusted z-score is inactive: 0.067.
Next, UGCUGUCCGAGGAAACCUATT against MIP: inactive: 0.702.
For GCAUUUCUACGAUCCUGAATT against GPT2, the median seed-adjusted z-score is inactive: 0.0268.
Next, GGUUGGUAAUUCUGACUGUTT against SYCP1: inactive: -0.0197; CCGUUACUGUUGCUGCCUATT against PTPRF: inactive: 0.413.
Next, GGAUGAAGCCUCCGACUAATT against MERTK: inactive: 0.369; CAGUGGUCCUAUUUCUAAATT against SCML1: inactive: 0.575; GCACGUCACUGUGGUUGUATT against THNSL2: inactive: 0.
The figure for CCUUCCCUCAGGUACUAAATT against THEX1 is inactive: -0.423; for ACUUUGCAAUGAAAGGAAATT against POLE3 it is inactive: -0.0612; for AGAUGUACAAGGACCGCAUTT against CARD9 it is inactive: -0.325.
Turning to GAAUCACGCUCGGAAACAATT against NCOR2, the median seed-adjusted z-score is inactive: -0.305.
In the case of GCUAUCAACUUACAGUACATT against ZNF30, the median seed-adjusted z-score is inactive: -0.0208.
Turning to CAAUGUUACUGAUGCGGAUTT against CASQ1, the median seed-adjusted z-score was inactive: -0.0307.
Next, AGACAUCUAUUAUCUGCUUTT against FOXD2: inactive: -0.0853; CCAGGACACUCACCCAGAATT against GMPPA: inactive: 0.619.
Take GCUAUGGUAGUGCAGAUUATT against FLG: the median seed-adjusted z-score was inactive: 0.221.
The figure for CAGGUUUUCUACAACAACATT against ABCA2 is active: -1.18.
Next, CUCUGUGCGUCUCAACUAUTT against JUP: inactive: 0.15.
The figure for GCAGUUCCUAAAUUUCCGATT against SNX9 is inactive: 0.684.
In the case of GUGUUAUAACAAUCGAAGATT against CAPSL, the median seed-adjusted z-score is inactive: -0.168.
For the sequence GGAAGUUCAUUACCAGAAUTT against PLCZ1, the median seed-adjusted z-score was inactive: 0.
Turning to GCUAGACCGACCCACCAUATT against FKBP6, the median seed-adjusted z-score is active: -1.12.
Regarding GGCUUAUGCAGAUCAAGAATT against ASNA1, the median seed-adjusted z-score was inactive: 0.357.
For GGACCGACAUUGGUGUAUATT against JARID1A, the median seed-adjusted z-score is inactive: 0.189.
Regarding CCUUGUCACUGCGUUCUUATT against SLC22A3, the median seed-adjusted z-score is inactive: 0.126.
Regarding AGAUCUAUGAGAUUGAACATT against PRKAG3, the median seed-adjusted z-score was active: -1.03.
In the case of ACUUCGAGCUGGACCUUAATT against PCDHAC2, the median seed-adjusted z-score is inactive: -0.107.
In the case of CGGUCAUUUCGUCGAGAUATT against HSF5, the median seed-adjusted z-score is inactive: 0.369.
With GCAUACCGGUCAAGUCCUATT against ATP13A2, the median seed-adjusted z-score was inactive: 0.461.
The figure for GCAACACCCAGGUAGUUUUTT against EIF4A1 is active: -1.05; for GGACUCUACCUGACAGAAATT against CAPN13 it is inactive: 0.208; for GCAUCUAUCACAACAACUATT against MCM2 it is inactive: 0.
As for CAAGUCCCAUUGAUCCUGATT against HLF, the median seed-adjusted z-score is inactive: 0.0548.
Next, GUCAGUACCUAGAUCGACATT against SART3: inactive: 0.
As to CACGGUAUAUGUUAGAGUATT against DSG3, the median seed-adjusted z-score is inactive: 0.
The figure for GUGACAGUGGUAUAACUAATT against TRIM52 is inactive: 0.00966; for GAUCUAUUCUUAAUGCCGATT against TFB1M it is inactive: 0.172; for GAACAACUACGUGAAUUAUTT against KHDRBS2 it is inactive: -0.335.
As for GGAACAUUGCGAUUUGGAATT against CEPT1, the median seed-adjusted z-score is inactive: 0.328.
The figure for GCCUACUUCUGUACACGGATT against MED12 is inactive: -0.896; for GCAUUGGUCAAGAAUAGCATT against KLHL2 it is inactive: 0.
For GGAACGCAUGGAGAACAUUTT against APEH, the median seed-adjusted z-score is inactive: -0.0726.
Turning to GACUAGCUAGAGACAAUGATT against PIK3CA, the median seed-adjusted z-score was inactive: 0.0823.
Next, ACAUCGCGGUCAUCAAGUATT against MVD: inactive: -0.561; CCAUGCGACUCGAACCUAUTT against FXR2: inactive: -0.133; AGUCCUUCAUCUUCACAGATT against TBX10: inactive: 0.175.
For the sequence CGAGCAAUUUAGAGACUUATT against PCDHGA3, the median seed-adjusted z-score is inactive: 0.27.
With AUAUCGCGCUCAUCACUAUTT against FOXD1, the median seed-adjusted z-score is inactive: -0.659.
Take GCUUGGGUACUGACAAAUATT against KPNA1: the median seed-adjusted z-score is inactive: -0.0231.
Next, CCAAGUUUGUUACCAAGAUTT against TRPV4: inactive: -0.73; GGAAGGCAAAAGAGUAAAATT against NUDT2: inactive: 0.891; CCAGAAAAAGUAUAUGGGATT against COX6A1: inactive: -0.0917.
For the sequence CAUCCGGCCUGGAGUGAUATT against PAX8, the median seed-adjusted z-score was inactive: 0.
Next, CAAAAGACCUGUAAUAAGATT against MAGT1: inactive: -0.0855; UGAUAUCCCUUGUCUGUAATT against RHOB: inactive: -0.776.
On to GCAACUGAGUAGAGUCAAATT against UTP14A, for which the median seed-adjusted z-score was inactive: -0.366.
UGCUCAUGCUGAUCCGGGATT against TBC1D13: the median seed-adjusted z-score was inactive: 0.33.
The figure for GCAUCCUCGGCUCCACUAUTT against NEURL is inactive: -0.268; for AGCCCUAUCUUUGCAAGAUTT against ZIC1 it is inactive: 0.162; for GCAGCUAGAUUCACUUCUATT against KRT76 it is inactive: 0.726.
Turning to GGACCAUCACCUUUGAGCATT against TPPP, the median seed-adjusted z-score is inactive: -0.16.
For GCGGCCCAAGGAUAUCAUATT against CAPN11, the median seed-adjusted z-score is inactive: -0.273.
The figure for CGAGCUUUUCACCACCAUATT against SRD5A2 is inactive: 0.185.
Take GAGCAGAUCUGGGACAAGATT against DHRS2: the median seed-adjusted z-score was inactive: 0.35.
Next, GCUUCUACACGGCCCAACATT against FDXR: inactive: 0.6; CAACCGCAAAUAUGCCCAUTT against PLA2G2E: inactive: -0.37; GCAUAGACGAGGACCAGUATT against DRP2: inactive: -0.0555.
The figure for CGAUCACAGCUACCGACAATT against PCDHGB3 is inactive: 0.275; for GCGGCUUCAUAUACAGAUATT against AHCYL2 it is inactive: 0.415; for GGUCAAUGCUCUAAGUGAATT against CMKLR1 it is inactive: -0.704.
On to CAGUUACACUCCAUACGCATT against RTCD1, for which the median seed-adjusted z-score was inactive: 0.0794.
